# No constants are given. Whether binding was seen depends on the method and setting. In cells and extracts the contact can be indirect. These calls come from enrichment with a bait or labelling near it, and not all partners need be listed. Where a sequence is shown, tags or fusion partners need not be part of it.
# Amino acid sequences for entries named in this document (tags omitted).
# UniProt Q96J01: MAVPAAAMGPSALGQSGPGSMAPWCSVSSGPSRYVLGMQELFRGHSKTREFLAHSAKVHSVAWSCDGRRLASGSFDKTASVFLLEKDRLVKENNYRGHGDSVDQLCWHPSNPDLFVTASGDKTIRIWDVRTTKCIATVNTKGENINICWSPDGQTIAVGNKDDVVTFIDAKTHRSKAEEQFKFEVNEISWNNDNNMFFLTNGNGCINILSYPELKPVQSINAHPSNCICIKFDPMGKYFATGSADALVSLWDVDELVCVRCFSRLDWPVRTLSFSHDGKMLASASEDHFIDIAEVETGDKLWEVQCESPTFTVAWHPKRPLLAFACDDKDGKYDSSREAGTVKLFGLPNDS
# UniProt Q13769: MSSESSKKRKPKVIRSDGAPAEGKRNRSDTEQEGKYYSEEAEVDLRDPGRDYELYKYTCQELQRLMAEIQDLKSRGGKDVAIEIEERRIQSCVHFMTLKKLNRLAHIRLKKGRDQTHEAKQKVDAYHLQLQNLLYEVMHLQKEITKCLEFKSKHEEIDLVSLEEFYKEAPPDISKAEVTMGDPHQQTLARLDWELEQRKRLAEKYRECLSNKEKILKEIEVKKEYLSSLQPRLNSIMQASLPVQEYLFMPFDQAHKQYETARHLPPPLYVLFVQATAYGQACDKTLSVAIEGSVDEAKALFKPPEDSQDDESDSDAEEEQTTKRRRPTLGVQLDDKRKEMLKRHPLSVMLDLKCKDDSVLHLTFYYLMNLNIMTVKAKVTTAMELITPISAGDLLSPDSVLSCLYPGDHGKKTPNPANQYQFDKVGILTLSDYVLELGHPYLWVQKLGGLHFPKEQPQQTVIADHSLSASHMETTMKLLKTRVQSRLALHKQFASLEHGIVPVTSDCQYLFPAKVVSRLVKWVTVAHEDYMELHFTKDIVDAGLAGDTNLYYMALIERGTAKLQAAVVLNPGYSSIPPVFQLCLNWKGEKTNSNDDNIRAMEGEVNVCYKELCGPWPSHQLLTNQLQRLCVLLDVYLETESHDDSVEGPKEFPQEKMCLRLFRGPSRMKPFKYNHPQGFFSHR
# UniProt Q86W42: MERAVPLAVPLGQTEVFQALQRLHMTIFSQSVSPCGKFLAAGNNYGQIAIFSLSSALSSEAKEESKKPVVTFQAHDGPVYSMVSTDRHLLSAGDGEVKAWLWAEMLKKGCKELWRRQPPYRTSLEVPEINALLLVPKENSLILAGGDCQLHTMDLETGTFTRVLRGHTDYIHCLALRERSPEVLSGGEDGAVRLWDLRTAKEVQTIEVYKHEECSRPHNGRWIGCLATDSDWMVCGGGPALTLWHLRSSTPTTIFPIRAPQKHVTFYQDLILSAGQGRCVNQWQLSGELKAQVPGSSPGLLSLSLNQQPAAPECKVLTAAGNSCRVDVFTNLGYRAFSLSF
# UniProt Q6I9Y2: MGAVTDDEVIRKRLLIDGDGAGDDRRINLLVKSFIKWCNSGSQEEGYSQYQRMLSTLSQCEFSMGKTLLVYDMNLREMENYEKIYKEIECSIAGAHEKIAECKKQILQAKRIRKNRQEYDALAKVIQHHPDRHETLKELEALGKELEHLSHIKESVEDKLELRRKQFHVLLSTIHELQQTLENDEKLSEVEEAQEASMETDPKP
# Molecular target: T1, THOC1-3C-AID-GFP (human) (UniProt Q96FV9)
# T1 sequence: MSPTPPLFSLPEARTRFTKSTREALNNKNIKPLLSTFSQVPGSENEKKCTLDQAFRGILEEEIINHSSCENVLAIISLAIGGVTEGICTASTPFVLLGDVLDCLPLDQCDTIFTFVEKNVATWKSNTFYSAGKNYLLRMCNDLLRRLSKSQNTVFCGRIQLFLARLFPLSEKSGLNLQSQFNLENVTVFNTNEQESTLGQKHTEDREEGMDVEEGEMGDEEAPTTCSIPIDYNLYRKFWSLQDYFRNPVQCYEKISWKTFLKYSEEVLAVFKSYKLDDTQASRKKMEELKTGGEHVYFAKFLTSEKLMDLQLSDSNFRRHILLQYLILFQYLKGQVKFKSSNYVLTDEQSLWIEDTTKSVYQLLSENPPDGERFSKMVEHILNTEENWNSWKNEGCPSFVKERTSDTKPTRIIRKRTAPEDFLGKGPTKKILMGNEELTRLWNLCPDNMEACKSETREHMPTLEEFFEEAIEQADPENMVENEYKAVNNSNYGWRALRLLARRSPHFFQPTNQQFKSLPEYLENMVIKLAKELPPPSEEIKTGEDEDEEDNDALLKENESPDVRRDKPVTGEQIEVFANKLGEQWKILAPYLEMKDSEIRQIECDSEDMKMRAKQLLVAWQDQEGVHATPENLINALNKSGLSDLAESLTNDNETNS
# Test: affinity purification with mass spectrometry; THOC1-3C-AID-GFP K562 nuclear extract, mild benzonase, GFP-Trap resin, 3C elution, sucrose gradient; SDS-PAGE bands and peak fractions identified by mass spectrometry
row,Substance,binding
1,THOC3 (endogenous) (from UniProt Q96J01 1-351),binds
2,THOC5 (endogenous) (from UniProt Q13769 1-683),binds
3,THOC6 (endogenous) (from UniProt Q86W42 1-341),binds
4,THOC7 (endogenous) (from UniProt Q6I9Y2 1-204),binds

# From article PMC7614608
